Earlier results on 1 molecule are cited in US8067243B2 (priority 2008, dated 2011).

Molecules are shown by their SMILES.

The conditions of the series: in vivo; cited from earlier work.

Turning to `CN1CC[C@]23c4c5ccc(O)c4O[C@H]2[C@@H](O)C=C[C@H]3[C@H]1C5` [Morphine], the “Retention Time” value is 1 to 3 days.
